Experimental data: PubChem BioAssay AID292 (DTP/NCI, 2004)
The list does not hold the whole screen: it gathers tests that were run many times, whatever their T/C, doses with no T/C, and many T/C values between a quarter and a half above the control. Other doses and runs of a compound stand elsewhere. T/C: endpoint of the treated group in % of that of the vehicle group. Some doses have a count of surviving animals in place of a T/C: the source holds a T/C of zero for them, seemingly a mark for toxic or unscored doses. Some doses without a T/C left all or most animals alive at the check, yet need not have been tolerated: the source hardly ever lists a survival T/C far under the control, and the zero likely stands for such cases as well. Survivors were counted at the toxicity check, usually on the fifth day, unless a day is given; later deaths do not show. Schedules are NCI's codes, taken here to give the interval after Q, in days (D) or hours (H), and the number of doses after X. Some doses were run more than once; the results are listed from low to high. For survival time, this PubChem deposit counts one and a half times the control or more as active, and values a quarter to a half above the control carry no call in these data; other NCI protocols may use other cut-offs. Counts like (3×) say how often a value occurs here. Some T/C values carry the count of animals alive at the toxicity check (mostly the fifth day); without a count, all were alive then.

Tested on: B6C3F1 mice, ip Sarcoma M5076, median survival T/C
Assay: NCI In Vivo Anticancer Drug Screen. Data for tumor model Sarcoma M5076 (intraperitoneal) in B6C3F1 mice
Details: T/C endpoint: median survival time, higher T/C = longer survival
In short: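 Antitumour effect is judged in tumour-bearing mice by comparing survival after compound dosing against vehicle-only animals, reported as T/C.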

[1] = dose: 800.0 mg/kg/injection, schedule: Q04DX004 (ip), vehicle: saline with Tween-80
[2] = dose: 400.0 mg/kg/injection, schedule: Q04DX004 (ip), vehicle: Klucel (hydroxypropylcellulose) (HPC)
[3] = dose: 400.0 mg/kg/injection, schedule: Q04DX004 (ip), vehicle: saline with Tween-80
[4] = dose: 800.0 mg/kg/injection, schedule: Q04DX004 (ip), vehicle: Klucel (hydroxypropylcellulose) (HPC)
[5] = dose: 6.25 mg/kg/injection, schedule: Q04DX005 (ip), vehicle: saline
[6] = dose: 100.0 mg/kg/injection, schedule: Q04DX004 (ip), vehicle: saline
[7] = dose: 100.0 mg/kg/injection, schedule: Q04DX005 (ip), vehicle: saline

Cc1c(-c2ccc(-c3ccccc3F)cc2)nc2ccc(F)cc2c1C(=O)O was tested. Which survivor count (dose: 50.0 mg/kg/injection, schedule: Q01DX009 (ip), vehicle: water) did it give?
Its survivor count is 4 of 10 on day 14.

What about the survivor count (dose: 100.0 mg/kg/injection, schedule: Q01DX009 (ip), vehicle: water) of the same molecule?
Its survivor count is 0 of 10 on day 14.

CC1=CC(C)(C)N=C2SC(COc3ccccc3)=NN12 was tested. Which survivor count [1] did it give?
Its survivor count is 8 of 10 on day 14.

With COc1cc2c(c(OC)c1OC)-c1cccc(=O)cc1C(NC(C)=O)CC2 (stereo not given) as the molecule, how does the T/C (dose: 50.0 mg/kg/injection, schedule: Q04DX004 (ip), vehicle: Klucel (hydroxypropylcellulose) (HPC)) read?
The T/C was 128 % of control.

And the T/C (dose: 200.0 mg/kg/injection, schedule: Q04DX004 (ip), vehicle: Klucel (hydroxypropylcellulose) (HPC))?
The T/C was 127 % of control.

And the survivor count [2]?
The survivor count was 0 of 10 on day 14.

Which results are given for Cc1nc2cc[nH]n2c(=O)c1CCc1ccccc1?
survivor count [3]: 10 of 10 on day 14; survivor count [1]: 10 of 10 on day 14

Which survivor count (dose: 150.0 mg/kg/injection, schedule: Q04DX004 (ip), vehicle: saline with Tween-80) does the source give for CCOP1(OCC)(SSC)OC(=O)C(C)S1 (stereo not given) here?
Its survivor count is 3 of 10 on day 14.

And the survivor count (dose: 300.0 mg/kg/injection, schedule: Q04DX004 (ip), vehicle: saline with Tween-80)?
The survivor count was 0 of 10 on day 14.

How did the T/C [3] turn out when O=C(Nc1ccccc1CCl)Nc1ccccc1CCl was run?
Its T/C is 128 [8 of 10 alive on day 14] and 137 % of control.

What about the survivor count [1] of the same molecule?
The survivor count was 0 of 10 on day 14.

For CC1=CC(=NN=c2cc(C)n([O-])c(C)c2)C=C(C)[N+]1=O, which T/C [1] is on record?
The T/C was 125 % of control [7 of 10 alive on day 9].

Which survivor count [3] does the source give for Clc1ccc(-c2noc(CN3CCCCC3)n2)cc1 here?
Its survivor count is 5 of 10 on day 14.

What about the survivor count [1] of the same molecule?
The survivor count was 0 of 10 on day 14.

For COc1cccc(C2C(C#N)C(=O)NC(=O)C2C#N)c1 (stereo not given), which survivor count [4] is on record?
The survivor count was 0 of 10 on day 14.

With O=C1C2CC=CCC2C(=O)N1SC(Cl)(Cl)Cl (stereo not given) as the molecule, how does the survivor count (dose: 50.0 mg/kg/injection, schedule: Q04DX004 (ip), vehicle: saline with Tween-80) read?
Its survivor count is 5 of 10 on day 14.

Which survivor count (dose: 425.0 mg/kg/injection, schedule: Q04DX004 (ip), vehicle: saline with Tween-80) does the source give for O=S1(=O)C(c2cccc(F)c2)=C(O)c2cc3ccccc3nc21 here?
Its survivor count is 0 of 10 on day 14.

How did the survivor count (dose: 500.0 mg/kg/injection, schedule: Q04DX004 (ip), vehicle: saline with Tween-80) turn out when Cn1c(=S)[nH]n(CCOc2ccccc2)c1=S was run?
The survivor count was 10 of 10 on day 14.

What does the source list for O=C(O)[C@H](Cc1ccccc1)N1C(=O)c2ccccc2C1=O?
survivor count (dose: 500.0 mg/kg/injection, schedule: Q04DX004 (ip), vehicle: DMSO): 10 of 10 on day 14; survivor count (dose: 1000.0 mg/kg/injection, schedule: Q04DX004 (ip), vehicle: DMSO): 8 of 9 on day 14

How did the survivor count (dose: 30.0 mg/kg/injection, schedule: Q04DX004 (ip), vehicle: saline with Tween-80) turn out when O=S(=O)(O)SCCNCCCCC1CCCCC1 was run?
The survivor count was 5 of 10 on day 14.

What about the survivor count (dose: 60.0 mg/kg/injection, schedule: Q04DX004 (ip), vehicle: saline with Tween-80) of the same molecule?
The survivor count was 0 of 10 on day 14.

O=c1[nH]cnc2c1cnn2CN1CCOCC1 was tested. Which survivor count [2] did it give?
The survivor count was 4 of 10 on day 14.

Which survivor count (dose: 600.0 mg/kg/injection, schedule: Q04DX004 (ip), vehicle: Klucel (hydroxypropylcellulose) (HPC)) does the source give for Cc1cc(C(F)(F)F)nc2nc3ccccc3n12 here?
The survivor count was 9 of 10 on day 14.

How did the T/C (dose: 25.0 micrograms/kg/injection, schedule: Q04DX004 (ip), vehicle: saline + alcohol) turn out when CCC(/C=C/C1OC(=O)C=CC1C)=C\C(C)C/C=C/C(C)=C/C(C)C(=O)C(C)C(O)C(C)C/C(C)=C/C(=O)O (stereo not given) was run?
The T/C was 131 and 149 % of control.

What about the T/C (dose: 50.0 micrograms/kg/injection, schedule: Q04DX004 (ip), vehicle: saline + alcohol) of the same molecule?
The T/C was 127 % of control.

What about the T/C (dose: 100.0 micrograms/kg/injection, schedule: Q04DX004 (ip), vehicle: saline) of the same molecule?
The T/C was 132 % of control.

What about the T/C (dose: 200.0 micrograms/kg/injection, schedule: Q04DX004 (ip), vehicle: saline + alcohol) of the same molecule?
Its T/C is 148 % of control.

What about the T/C (dose: 200.0 micrograms/kg/injection, schedule: Q04DX004 (ip), vehicle: saline) of the same molecule?
The T/C was 142 % of control [9 of 10 alive on day 14].

And the T/C (dose: 400.0 micrograms/kg/injection, schedule: Q04DX004 (ip), vehicle: saline)?
The T/C was 133 % of control (2×).

And the T/C (dose: 800.0 micrograms/kg/injection, schedule: Q04DX004 (ip), vehicle: other)?
Its T/C is 148 % of control.

What about the T/C (dose: 800.0 micrograms/kg/injection, schedule: Q04DX004 (ip), vehicle: saline) of the same molecule?
The T/C was 147 % of control.

What about the survivor count (dose: 1600.0 micrograms/kg/injection, schedule: Q04DX004 (sc), vehicle: other) of the same molecule?
Its survivor count is 1 of 10 on day 14.

What does the source list for CN(C)C(=O)c1cccc(COc2ccc(N3C(N)=NC(N)=NC3(C)C)cc2Cl)c1?
T/C (dose: 6.25 mg/kg/injection, schedule: Q04DX004 (ip), vehicle: saline): 97, 99, 100, 103 (2×), 105, 111 % of control; T/C [5]: 89, 92, 100, 100 % of control [9 of 10 alive on day 9]; survivor count [5]: 8 of 8 on day 17; T/C (dose: 12.5 mg/kg/injection, schedule: Q04DX004 (ip), vehicle: saline): 88, 91, 98, 102 (2×), 110, 114 % of control; T/C (dose: 12.5 mg/kg/injection, schedule: Q04DX005 (ip), vehicle: saline, evaluated on day 75): 90, 100, 102, 111 % of control; T/C (dose: 12.5 mg/kg/injection, schedule: Q04DX005 (ip), vehicle: saline, evaluated on day 100): 100 % of control; T/C (dose: 25.0 mg/kg/injection, schedule: Q04DX004 (ip), vehicle: saline): 95, 95 [9 of 10 alive on day 9], 100 (2×), 108, 109, 115 % of control; T/C (dose: 25.0 mg/kg/injection, schedule: Q04DX005 (ip), vehicle: saline, evaluated on day 75): 98 [9 of 10 alive on day 9], 102 [9 of 10 alive on day 9], 106 % of control; T/C (dose: 25.0 mg/kg/injection, schedule: Q04DX005 (ip), vehicle: saline, evaluated on day 100): 92 % of control; survivor count (dose: 25.0 mg/kg/injection, schedule: Q04DX005 (ip), vehicle: saline): 10 of 10 on day 9; T/C (dose: 50.0 mg/kg/injection, schedule: Q04DX004 (ip), vehicle: saline): 88, 96, 98 [7 of 10 alive on day 9], 102 (3×), 128 % of control; T/C (dose: 50.0 mg/kg/injection, schedule: Q04DX005 (ip), vehicle: saline, evaluated on day 75): 96 [9 of 10 alive on day 9] and 109 % of control; T/C (dose: 50.0 mg/kg/injection, schedule: Q04DX005 (ip), vehicle: saline, evaluated on day 100): 91 % of control [6 of 8 alive on day 17]; survivor count (dose: 50.0 mg/kg/injection, schedule: Q04DX005 (ip), vehicle: saline): 5 of 10 on day 9 and 10 of 10 on day 9; T/C [6]: 94 and 105 % of control; survivor count [6]: 0 of 10 on day 14, 0 of 10 on day 9, 3 of 10 on day 14; T/C [7]: 91 % of control; survivor count [7]: 0 of 10 on day 9 and 0 of 8 on day 17

How did the survivor count (dose: 100.0 mg/kg/injection, schedule: Q04DX004 (ip), vehicle: water) turn out when [Cl][Pt][Cl].[NH-]C(CO)C(=O)O (stereo not given) was run?
Its survivor count is 5 of 10 on day 14.

What about the survivor count (dose: 200.0 mg/kg/injection, schedule: Q04DX004 (ip), vehicle: water) of the same molecule?
The survivor count was 0 of 10 on day 14.

With COC(=O)NC1C(C)OC(OC2C/C=C(/C)C3C=CC4C(OC5CC(OC6CC(O)C(OC7CC(O)C(OC)C(C)O7)C(C)O6)C(O)C(C)O5)C(C)CC(C)C4C3(C)/C(O)=C3\C(=O)OC4(CC(C)C(CO)=CC4/C=C\2C)C3=O)CC1(C)[N+](=O)[O-] (stereo not given) as the molecule, how does the survivor count [2] read?
Its survivor count is 0 of 10 on day 14.

Which results are given for [NH-]C(CCC(N)=O)C(=O)O.[NH-]C(CCC(N)=O)C(=O)O.[Zn+2] (stereo not given)?
survivor count (dose: 100.0 mg/kg/injection, schedule: Q04DX004 (ip), vehicle: saline with Tween-80): 0 of 10 on day 14; survivor count (dose: 200.0 mg/kg/injection, schedule: Q04DX004 (ip), vehicle: saline with Tween-80): 0 of 10 on day 14

With COc1cc(N2C(=O)C(=O)C(C(C)=O)C2=O)c(OC)cc1Cl (stereo not given) as the molecule, how does the survivor count [4] read?
Its survivor count is 0 of 10 on day 14.

For CC1OC(O[C@H]2/C=C/C=C/C=C/C=C/C=C/C=C/C=C/[C@H](C)[C@@H](O)[C@@H](C)[C@H](C)OC(=O)C[C@H](O)C[C@H](O)CC[C@@H](O)[C@H](O)C[C@H](O)C[C@]3(O)C[C@H](O)[C@@H](C(=O)O)[C@H](C2)O3)C(O)C(N)C1O (stereo not given in full), which survivor count (dose: 100.0 mg/kg/injection, schedule: Q04DX004 (ip), vehicle: suspension in saline) is on record?
The survivor count was 0 of 10 on day 14.

And the survivor count (dose: 200.0 mg/kg/injection, schedule: Q04DX004 (ip), vehicle: suspension in saline)?
Its survivor count is 0 of 10 on day 14.
